Experimental data reported in patent US6544727B1, “Methods and devices for the removal of psoralens from blood products” (Cerus Corporation, priority 1995, dated 2003).
At least one structure is not confirmed: it was looked up by name or label, or the drawing left a doubt. Some of these results come from one statement about several compounds together.

Legend:
[1] = test system: Pseudomonas; assay: Bacterial inactivation, colony forming units; assay type: cell-based; conditions: 16 μM; 5 J/cm^2 irradiation; starting titer 6.5 logs
Protocol: The bacteria, a strain of Pseudomonas, was inoculated into LB with a sterile loop and grown overnight in a shaker at 37° C. Based on the approximation that one OD at 610 mn is equivalent to 5×10^8 colony forming units (cfu)/mL, a 1:10 dilution of the culture was measured on a spectrophotometer, (manufactured by Shimatsu). The bacterial culture was added to a solution of 15% fetal bovine serum in DMEM to a final bacteria concentration of approximately 10^6/mL. An aliquot (0.8 mL) was transferred to a 1.5 mL snap-top polyethylene tube. An aliquot (0.004-0.040 mL) of the test compound stock solution prepared in water, ethanol or dimethylsulfoxide at 0.80-8.0 mM was added to the tube. Compounds were tested at a concentration of 16 μM. The tubes were placed in a light device as described in EXAMPLE 1 and irradiated with 1.3 J/cm^2, 1.2 J/cm^2, and finally 2.5 J/cm^2, for a total of 5 J/cm^2. 150 μL were removed for testing after each pulse period. Sterile 13 mL dilution tubes were prepared; each test compound required one tube with 0.4 mL of LB broth and four tubes containing 0.5 mL of LB broth. […] The colony forming units were then counted the following morning and the titer of the phage remaining after phototreatment was calculated based on the dilution factors. […]

[2] = test system: HIV-1; conditions: 64 μM; 1 minute irradiation; starting titer approximately 5 logs (Table 10)

In the case of `Cc1oc2c(C)c3oc(=O)cc(C)c3cc2c1CNCCCCN` [Compound 6, 4′-(6-amino-2-aza)hexyl-4,5′,8-trimethylpsoralen], the “log kill of Pseudomonas” value [1] is reported as greater than 5.5 logs.

In the case of `Cc1oc2c(C)c3oc(=O)cc(C)c3cc2c1COCCN` [Compound 2, 4′-(4-amino-2-oxa)butyl-4,5′,8-trimethylpsoralen], the “log kill of Pseudomonas” value [1] is reported as greater than 5.5 logs.

For `Cc1oc2c(C)c3oc(=O)cc(C)c3cc2c1CN` [AMT, 4′-Aminomethyl-4,5′,8-trimethylpsoralen, reference compound], the “HIV Log Kill” value [2] was 3.9->3.6.
